These are yes or no findings as the source states them, for the method shown. Binding seen in cells or lysates may run through a third protein. A result given as binding can be weak or reduced; the word gives no strength. Sequences can lack the tags named with a protein.
Legend:
Experiment in all cases: pull-down; GST-PDZD11 baits (full-length, truncated, 1-30, mutants; E. coli) on GSH-Sepharose beads, incubated 1 h at 4 °C with insect cell lysate holding full-length PLEKHA7-His; immunoblot with anti-His; only the target purified
[1] = target: GST-PDZD11 full-length E19A (human) (UniProt Q5EBL8)
[2] = target: GST-PDZD11 N-term 1-30 E19A (human) (UniProt Q5EBL8)
[3] = target: GST-PDZD11 N-term 1-30 N20A (human) (UniProt Q5EBL8)
[4] = target: GST-PDZD11 full-length N20A (human) (UniProt Q5EBL8)

The chains behind the UniProt entries cited, without tags or fusion partners. Where a name states a change or a piece, a line headed by the entry shows the natural chain unless it says otherwise.
UniProt Q5EBL8: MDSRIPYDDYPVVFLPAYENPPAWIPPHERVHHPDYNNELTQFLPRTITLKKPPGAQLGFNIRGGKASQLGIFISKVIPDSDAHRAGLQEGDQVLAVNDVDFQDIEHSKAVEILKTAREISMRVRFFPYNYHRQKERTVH

Measured: binding

B1: PLEKHA7-His, full-length (protein, UniProt Q6IQ23 1-1121)
chain: MAAATVGRDTLPEHWSYGVCRDGRVFFINDQLRCTTWLHPRTGEPVNSGHMIRSDLPRGWEEGFTEEGASYFIDHNQQTTAFRHPVTGQFSPENSEFILQEEPNPHMSKQDRNQRPSSMVSETSTAGTASTLEAKPGPKIIKSSSKVHSFGKRDQAIRRNPNVPVVVRGWLHKQDSSGMRLWKRRWFVLADYCLFYYKDSREEAVLGSIPLPSYVISPVAPEDRISRKYSFKAVHTGMRALIYNSSTAGSQAEQSGMRTYYFSADTQEDMNAWVRAMNQAAQVLSRSSLKRDMEKVERQAVPQANHTESCHECGRVGPGHTRDCPHRGHDDIVNFERQEQEGEQYRSQRDPLEGKRDRSKARSPYSPAEEDALFMDLPTGPRGQQAQPQRAEKNGMLPASYGPGEQNGTGGYQRAFPPRTNPEKHSQRKSNLAQVEHWARAQKGDSRSLPLDQTLPRQGPGQSLSFPENYQTLPKSTRHPSGGSSPPPRNLPSDYKYAQDRASHLKMSSEERRAHRDGTVWQLYEWQQRQQFRHGSPTAPICLGSPEFTDQGRSRSMLEVPRSISVPPSPSDIPPPGPPRVFPPRRPHTPAERVTVKPPDQRRSVDISLGDSPRRARGHAVKNSSHVDRRSMPSMGYMTHTVSAPSLHGKSADDTYLQLKKDLEYLDLKMTGRDLLKDRSLKPVKIAESDTDVKLSIFCEQDRVLQDLEDKIRALKENKDQLESVLEVLHRQMEQYRDQPQHLEKIAYQQKLLQEDLVHIRAELSRESTEMENAWNEYLKLENDVEQLKQTLQEQHRRAFFFQEKSQIQKDLWRIEDVTAGLSANKENFRILVESVKNPERKTVPLFPHPPVPSLSTSESKPPPQPSPPTSPVRTPLEVRLFPQLQTYVPYRPHPPQLRKVTSPLQSPTKAKPKVEDEAPPRPPLPELYSPEDQPPAVPPLPREATIIRHTSVRGLKRQSDERKRDRELGQCVNGDSRVELRSYVSEPELATLSGDMAQPSLGLVGPESRYQTLPGRGLSGSTSRLQQSSTIAPYVTLRRGLNAESSKATFPRPKSALERLYSGDHQRGKMSAEEQLERMKRHQKALVRERKRTLGQGERTGLPSSRYLSRPLPGDLGSVC
binds: [1] | [2] | [3] | [4]

From publication PMC7363125
